Measurements: publication doi:10.1101/2021.02.09.430422
Where two headings read alike, the source gives them in different places. Results are given in words; binding and its absence hold for the method and conditions named. Some binding calls cover weakened binding; strength is not graded here. For some assays here: Tags and fused reporters may be left off the sequences shown.

T1: Smc5 (S. cerevisiae) (UniProt Q08204)
T1 sequence: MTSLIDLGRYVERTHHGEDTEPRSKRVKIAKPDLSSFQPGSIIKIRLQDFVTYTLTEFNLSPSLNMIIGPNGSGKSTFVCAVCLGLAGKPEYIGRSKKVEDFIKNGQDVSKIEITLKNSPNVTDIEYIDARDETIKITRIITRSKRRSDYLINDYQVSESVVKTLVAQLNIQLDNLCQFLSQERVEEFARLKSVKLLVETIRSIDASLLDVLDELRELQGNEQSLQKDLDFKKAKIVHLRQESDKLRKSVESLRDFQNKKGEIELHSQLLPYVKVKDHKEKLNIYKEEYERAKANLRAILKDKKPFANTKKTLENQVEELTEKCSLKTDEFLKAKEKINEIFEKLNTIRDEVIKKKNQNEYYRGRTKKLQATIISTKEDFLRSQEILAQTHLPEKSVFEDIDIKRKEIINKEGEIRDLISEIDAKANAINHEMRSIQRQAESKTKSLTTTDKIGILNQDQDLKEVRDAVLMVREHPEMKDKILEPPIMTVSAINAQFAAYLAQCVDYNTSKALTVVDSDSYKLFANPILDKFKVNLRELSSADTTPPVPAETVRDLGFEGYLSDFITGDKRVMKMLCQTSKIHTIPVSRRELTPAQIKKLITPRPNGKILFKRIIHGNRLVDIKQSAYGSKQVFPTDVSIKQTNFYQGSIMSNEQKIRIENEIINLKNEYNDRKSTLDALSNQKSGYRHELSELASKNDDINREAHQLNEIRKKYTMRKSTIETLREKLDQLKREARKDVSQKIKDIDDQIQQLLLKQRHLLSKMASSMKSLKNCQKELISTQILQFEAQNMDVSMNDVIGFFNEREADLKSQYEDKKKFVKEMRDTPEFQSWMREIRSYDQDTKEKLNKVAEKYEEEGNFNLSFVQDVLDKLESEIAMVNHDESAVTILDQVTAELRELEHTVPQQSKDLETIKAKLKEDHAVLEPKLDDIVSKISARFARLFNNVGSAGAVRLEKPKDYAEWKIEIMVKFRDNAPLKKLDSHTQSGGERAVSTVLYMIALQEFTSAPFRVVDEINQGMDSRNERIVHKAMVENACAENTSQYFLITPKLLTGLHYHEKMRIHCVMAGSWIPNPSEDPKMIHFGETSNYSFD

T2: Smc6 (Twin-Strep tag removed, as in the octamer for XL-MS) (S. cerevisiae) (UniProt Q12749)
T2 sequence: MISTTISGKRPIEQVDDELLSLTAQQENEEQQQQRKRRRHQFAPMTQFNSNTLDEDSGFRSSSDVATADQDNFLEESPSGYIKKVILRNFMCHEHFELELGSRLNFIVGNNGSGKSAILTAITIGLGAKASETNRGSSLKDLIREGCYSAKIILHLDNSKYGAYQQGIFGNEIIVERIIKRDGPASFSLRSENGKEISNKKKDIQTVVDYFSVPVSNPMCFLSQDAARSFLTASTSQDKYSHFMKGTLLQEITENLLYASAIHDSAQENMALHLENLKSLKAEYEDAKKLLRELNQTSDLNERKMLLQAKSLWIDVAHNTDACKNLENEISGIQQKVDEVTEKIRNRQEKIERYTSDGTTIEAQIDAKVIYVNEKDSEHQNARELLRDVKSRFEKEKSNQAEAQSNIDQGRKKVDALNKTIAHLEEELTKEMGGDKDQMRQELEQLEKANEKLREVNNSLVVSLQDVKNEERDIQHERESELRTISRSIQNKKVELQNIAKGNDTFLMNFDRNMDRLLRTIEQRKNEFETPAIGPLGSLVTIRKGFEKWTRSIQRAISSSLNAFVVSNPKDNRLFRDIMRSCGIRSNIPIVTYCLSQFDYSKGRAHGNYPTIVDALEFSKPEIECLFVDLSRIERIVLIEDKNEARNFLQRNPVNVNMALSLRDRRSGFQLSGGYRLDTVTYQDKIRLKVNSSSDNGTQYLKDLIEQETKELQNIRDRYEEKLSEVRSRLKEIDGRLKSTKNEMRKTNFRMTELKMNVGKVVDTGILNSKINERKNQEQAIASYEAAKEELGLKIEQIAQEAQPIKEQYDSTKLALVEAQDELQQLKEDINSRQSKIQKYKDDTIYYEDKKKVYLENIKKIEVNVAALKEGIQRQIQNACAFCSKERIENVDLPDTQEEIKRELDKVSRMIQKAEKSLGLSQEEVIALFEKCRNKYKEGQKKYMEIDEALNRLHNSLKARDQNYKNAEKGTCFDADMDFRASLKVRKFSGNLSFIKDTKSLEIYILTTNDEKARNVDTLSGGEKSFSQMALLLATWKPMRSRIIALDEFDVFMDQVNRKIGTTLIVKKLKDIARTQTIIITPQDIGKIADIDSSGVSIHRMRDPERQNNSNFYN

T3: Smc6-3C-Twin-Strep (S. cerevisiae) (UniProt Q12749)
T3 sequence: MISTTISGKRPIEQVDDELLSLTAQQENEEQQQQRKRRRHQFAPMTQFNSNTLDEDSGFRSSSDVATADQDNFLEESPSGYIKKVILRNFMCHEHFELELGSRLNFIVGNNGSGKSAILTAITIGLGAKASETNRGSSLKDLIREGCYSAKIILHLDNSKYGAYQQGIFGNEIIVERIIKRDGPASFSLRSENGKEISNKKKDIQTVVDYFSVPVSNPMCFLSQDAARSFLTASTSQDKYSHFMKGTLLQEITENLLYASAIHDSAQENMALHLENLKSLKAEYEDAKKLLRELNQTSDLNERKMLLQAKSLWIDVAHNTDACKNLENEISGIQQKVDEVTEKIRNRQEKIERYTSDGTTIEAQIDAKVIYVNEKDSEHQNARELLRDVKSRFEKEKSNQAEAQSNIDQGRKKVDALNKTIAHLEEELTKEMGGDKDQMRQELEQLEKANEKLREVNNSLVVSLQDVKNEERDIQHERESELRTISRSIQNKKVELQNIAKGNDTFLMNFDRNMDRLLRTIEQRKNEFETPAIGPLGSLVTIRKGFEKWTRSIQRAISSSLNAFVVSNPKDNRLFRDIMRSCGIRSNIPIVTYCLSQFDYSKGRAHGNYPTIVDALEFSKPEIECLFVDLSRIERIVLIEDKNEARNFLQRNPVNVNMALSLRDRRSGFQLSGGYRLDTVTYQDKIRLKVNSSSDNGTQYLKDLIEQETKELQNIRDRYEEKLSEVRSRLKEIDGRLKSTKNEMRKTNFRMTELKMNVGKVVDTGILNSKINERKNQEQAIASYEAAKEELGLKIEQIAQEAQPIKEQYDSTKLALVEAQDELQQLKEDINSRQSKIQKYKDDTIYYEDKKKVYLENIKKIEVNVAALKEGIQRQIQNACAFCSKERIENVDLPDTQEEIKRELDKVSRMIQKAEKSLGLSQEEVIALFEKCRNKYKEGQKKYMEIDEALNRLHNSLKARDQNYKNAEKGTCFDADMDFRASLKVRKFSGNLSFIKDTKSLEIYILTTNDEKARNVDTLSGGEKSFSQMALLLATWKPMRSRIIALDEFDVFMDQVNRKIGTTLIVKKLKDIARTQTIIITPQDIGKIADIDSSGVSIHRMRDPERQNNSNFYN


Experiments:
[1] = target: T1, Smc5 (S. cerevisiae); assay: cross-linking
[2] = target: T2, Smc6 (Twin-Strep tag removed, as in the octamer for XL-MS) (S. cerevisiae); assay: cross-linking
[3] = target: T1, Smc5 (S. cerevisiae); assay: cross-linking; remark: listed apart in the source
[4] = target: T2, Smc6 (Twin-Strep tag removed, as in the octamer for XL-MS) (S. cerevisiae); assay: cross-linking; remark: listed apart in the source
[5] = target: T3, Smc6-3C-Twin-Strep (S. cerevisiae); assay: co-purification after co-expression

| binding [1] | binding [2] | binding [3] | binding [4] | binding [5] | Binder |
| --- | --- | --- | --- | --- | --- |
| binds | binds | binds | binds |  | Nse5-AviTag (Twin-Strep removed, as in the octamer for XL-MS) (protein, UniProt Q03718 1-556) MDGALINSVLYVSPRNGAHYFVELTEKHLLAFEMLNSMCLLENYDHVLLFLECQFGKSHNLAVIPFDIILVLFTLSTLSEYYKEPILRANDPYNTSRETLSRRALKLLQKYLAILKEFDSEQYNLYDLELLRCQFFLAIDTLTPKKQKWGFDRFRRTKSESGVTYRQNASVDPELDQAKTFKNPYRSYISCLEQRNTILGNRLLNLKLNEPGEFINMILWTLSNSLQESTPLFLSSHEIWMPLLEILIDLFSCRQDYFIQHEVAQNVSKSLFVQRLSESPLAVFFESLNTRNFANRFSEYVFLNCDYKLPSDNYATPVHPVYNGENTIVDTYIPTIKCSPLYKSQKSLALRRKLIGSCFKLLLRVPDGHRLITPRIVADDVIQGISRTLASFNDILQFKKFFMTENLSQESYFIPLLAEGTLSEILKDTQECVVILTLVENLSDGVSFCNEVIGLVKSKCFAFTEQCSQASYEEAVLNIEKCDVCLLVLLRYLLHLIGTEAILDAKEQLEMLHAIEKNDSGRRQWAKALNLGNDPPLLYPIVSQMFGVHDKSVIIE |
|  | binds |  | binds | binds | Smc5 (protein, UniProt Q08204 1-1093) MTSLIDLGRYVERTHHGEDTEPRSKRVKIAKPDLSSFQPGSIIKIRLQDFVTYTLTEFNLSPSLNMIIGPNGSGKSTFVCAVCLGLAGKPEYIGRSKKVEDFIKNGQDVSKIEITLKNSPNVTDIEYIDARDETIKITRIITRSKRRSDYLINDYQVSESVVKTLVAQLNIQLDNLCQFLSQERVEEFARLKSVKLLVETIRSIDASLLDVLDELRELQGNEQSLQKDLDFKKAKIVHLRQESDKLRKSVESLRDFQNKKGEIELHSQLLPYVKVKDHKEKLNIYKEEYERAKANLRAILKDKKPFANTKKTLENQVEELTEKCSLKTDEFLKAKEKINEIFEKLNTIRDEVIKKKNQNEYYRGRTKKLQATIISTKEDFLRSQEILAQTHLPEKSVFEDIDIKRKEIINKEGEIRDLISEIDAKANAINHEMRSIQRQAESKTKSLTTTDKIGILNQDQDLKEVRDAVLMVREHPEMKDKILEPPIMTVSAINAQFAAYLAQCVDYNTSKALTVVDSDSYKLFANPILDKFKVNLRELSSADTTPPVPAETVRDLGFEGYLSDFITGDKRVMKMLCQTSKIHTIPVSRRELTPAQIKKLITPRPNGKILFKRIIHGNRLVDIKQSAYGSKQVFPTDVSIKQTNFYQGSIMSNEQKIRIENEIINLKNEYNDRKSTLDALSNQKSGYRHELSELASKNDDINREAHQLNEIRKKYTMRKSTIETLREKLDQLKREARKDVSQKIKDIDDQIQQLLLKQRHLLSKMASSMKSLKNCQKELISTQILQFEAQNMDVSMNDVIGFFNEREADLKSQYEDKKKFVKEMRDTPEFQSWMREIRSYDQDTKEKLNKVAEKYEEEGNFNLSFVQDVLDKLESEIAMVNHDESAVTILDQVTAELRELEHTVPQQSKDLETIKAKLKEDHAVLEPKLDDIVSKISARFARLFNNVGSAGAVRLEKPKDYAEWKIEIMVKFRDNAPLKKLDSHTQSGGERAVSTVLYMIALQEFTSAPFRVVDEINQGMDSRNERIVHKAMVENACAENTSQYFLITPKLLTGLHYHEKMRIHCVMAGSWIPNPSEDPKMIHFGETSNYSFD |

The remaining lines, values behind:

| Binder | binding [1] | binding [2] | binding [3] | binding [4] | binding [5] |
| --- | --- | --- | --- | --- | --- |
| Nse1 (protein, UniProt Q07913 1-336) MEVHEEQVSAPVTGDATAKYLLQYILSARGICHENALILALMRLETDASTLNTEWSIQQWVDKLNDYINAINVKLNLLGYKIIRINHGIGRNAVTLKAKQNFESFEDNTAIRAHNNDYAVLQSIVLPESNRFFVYVNLASTEETKLATRFNQNEIEFMKWAIEQFMISGETIVEGPALETSIIVKEVNRILVAATGDSNLAKWRKFSTFTVGSTNLFQFQELTATDIEDLLLRLCELKWFYRTQEGKFGIDLRCIAELEEYLTSMYNLNTCQNCHKLAIQGVRCGNESCREENEETGENSLSQIWHVDCFKHYITHVSKNCDRCGSSLITEGVYVI |  |  |  |  | binds |
| Nse2 (protein, UniProt P38632 1-267) MALNDNPIPKSVPLHPKSGKYFHNLHARDLSNIYQQCYKQIDETINQLVDSTSPSTIGIEEQVADITSTYKLLSTYESESNSFDEHIKDLKKNFKQSSDACPQIDLSTWDKYRTGELTAPKLSELYLNMPTPEPATMVNNTDTLKILKVLPYIWNDPTCVIPDLQNPADEDDLQIEGGKIELTCPITCKPYEAPLISRKCNHVFDRDGIQNYLQGYTTRDCPQAACSQVVSMRDFVRDPIMELRCKIAKMKESQEQDKRSSQAIDVL |  |  | binds | binds | binds |
| Nse4 (protein, UniProt P43124 1-402) MSSTVISRKRRNSTVTEPDSSGETRKQKKSRSDEKSSSSKDGDPQLEFKVLQGYRDLESEMHKGRAQVTRTGDIGVAMDNLNAVDSLFNKVIGIKNNGLFAHDARAMVSISELAQISVRNLKFDDSRSMVNLENIVNSLKRYMLKEHFKLNNIAENRNDLTLAADEQSAADQQEESDGDIDRTPDDNHTDKATSSFKATSMRHSYLQQFSHYNEFSQFNWFRIGALYNTISKNAPITDHLMGPLSIEKKPRVLTQRRRNNDQVGEKITAEKITQHSLNSTQQETTPEQVKKCFKKLSKKLGPEGSINLFKFIIDPNSFSRSIENLFYTSFLIKEGKLLMEHDEEGLPTIKIKQSISHTDSRSKEIERQRRRAAHQNHIIFQMDMPTWRKLIKKYNITSPFLD |  |  | binds | binds | binds |
